Source: patent US11225470B2, “Tetrazolinone compounds and its use as pest control agents” (SUMITOMO CHEMICAL COMPANY, LIMITED, priority 2016, dated 2022)
Some of these results come from one statement about several compounds together.

Experiments:
Assay type in all cases: in vivo
[1] = system: barley net blotch fungi (Pyrenophora teres); experiment: barley net blotch test; conditions: 200 ppm foliar spray, inoculation after 2 days; barley cv MIKAMO GOLDEN
[2] = system: barley scald fungi (Rhynchosporium secalis); experiment: barley scald test; conditions: inoculation after 2 days, barley cv NISHINOHOSHI
[3] = system: wheat leaf blotch fungi (Septoria tritici); experiment: wheat leaf blotch test, spraying before inoculation; conditions: inoculation after 4 days
[4] = system: wheat brown rust fungi (Puccinia recondita); experiment: wheat brown rust test; conditions: inoculation after 5 days, wheat cv SHIROGANE
[5] = system: cucumber downy mildew fungi (Pseudoperonospora cubensis); experiment: cucumber downy mildew test; conditions: inoculation after 1 day, cucumber cv SAGAMIHANJIRO
[6] = system: wheat leaf blotch fungi (Septoria tritici); experiment: wheat leaf blotch test, spraying after inoculation; conditions: 200 ppm foliar spray 3 days after inoculation; wheat cv APOGEE
[7] = system: kidney bean sclerotinia rot fungi (Sclerotinia sclerotiorum); experiment: kidney bean sclerotinia rot test; conditions: kidney bean cv NAGAUZURA SAITO, observed after four days
Method: (§1) Each of plastic pots was filled with soil and thereto Kidney bean (cv; NAGAUZURA SAITO) seeds were sown and the kidney beans were grown in a greenhouse for 8 days. Thereafter, any of the present compounds 1-1, 1-2, 1-3, 1-5, 1-10, 3-16, 3-22, 4-2, 4-3, 4-4, 4-8, or 6-2, each of which was made to a formulation according to the similar method to that of Formulation Example 6, was mixed with water so as to be a prescribed concentration (500 ppm). The adjusted solutions were sprayed to foliar parts so as to adhere adequately on the leaves of the above-mentioned kidney bean. After spraying the mixtures, the kidney beans were air-dried and a PDA medium containing hyphae of kidney bean sclerotinia rot fungi (Sclerotinia sclerotiorum) was placed on the leaves of the kidney bean. After the inoculation, all kidney beans were placed under a high humidity during only night and after four days, a lesion area was observed.
as §1, with “Thereafter, any of the present compounds 1-1, 1-2, 1-3, 1-5, 1-10, 3-16, 3-22, 4-2, 4-3, 4-4, 4-8, or 6-2, each of which was made to a formulation according to the similar method to that of Formulation Example 6, was mixed with water so as to be a prescribed concentration (500 ppm).” left out

[8] = system: soybean rust fungi (Phakopsora pachyrhizi); experiment: soybean rust test, spraying before inoculation; conditions: 200 ppm foliar spray, inoculation after 4 days; soybean cv Kurosengoku
[9] = 200 ppm foliar spray, wheat cv APOGEE
[10] = 500 ppm foliar spray, wheat cv Apogee

CSC(=NCCc1ccccc1)SCc1c(C)cccc1-n1nnn(C)c1=O [3-20]
≤ 30%: lesion area compared to the lesion area in an untreated barley [1] | lesion area compared to the lesion area in an untreated barley ([2]; 200 ppm foliar spray) | lesion area compared to the lesion area in an untreated barley ([2]; 500 ppm foliar spray) | lesion area compared to the lesion area in an untreated wheat [3, 9] | lesion area compared to the lesion area in an untreated wheat [3, 10] | lesion area compared to the lesion area in an untreated wheat ([4]; 200 ppm foliar spray) | lesion area compared to the lesion area in an untreated cucumber ([5]; 200 ppm foliar spray) | lesion area compared to the lesion area in an untreated wheat [6]

CSC(=NCCc1ccccc1F)SCc1c(C)cccc1-n1nnn(C)c1=O [3-25]
≤ 30%: lesion area compared to the lesion area in an untreated barley [1] | lesion area compared to the lesion area in an untreated barley ([2]; 200 ppm foliar spray) | lesion area compared to the lesion area in an untreated barley ([2]; 500 ppm foliar spray) | lesion area compared to the lesion area in an untreated kidney bean ([7]; 500 ppm foliar spray) | lesion area compared to the lesion area in an untreated wheat [3, 9] | lesion area compared to the lesion area in an untreated wheat [3, 10] | lesion area compared to the lesion area in an untreated wheat ([4]; 200 ppm foliar spray) | lesion area compared to the lesion area in an untreated cucumber ([5]; 50 ppm foliar spray) | lesion area compared to the lesion area in an untreated cucumber ([5]; 200 ppm foliar spray) | lesion area compared to the lesion area in an untreated wheat [6]

CSC(=NCCc1ccc(F)cc1)SCc1c(C)cccc1-n1nnn(C)c1=O [3-27]
≤ 30%: lesion area compared to the lesion area in an untreated barley [1] | lesion area compared to the lesion area in an untreated barley ([2]; 200 ppm foliar spray) | lesion area compared to the lesion area in an untreated barley ([2]; 500 ppm foliar spray) | lesion area compared to the lesion area in an untreated wheat [3, 9] | lesion area compared to the lesion area in an untreated wheat [3, 10] | lesion area compared to the lesion area in an untreated soybean [8] | lesion area compared to the lesion area in an untreated wheat ([4]; 200 ppm foliar spray) | lesion area compared to the lesion area in an untreated cucumber ([5]; 50 ppm foliar spray) | lesion area compared to the lesion area in an untreated cucumber ([5]; 200 ppm foliar spray)

CSC(=NCCc1ccc(Cl)cc1)SCc1c(C)cccc1-n1nnn(C)c1=O [3-33]
≤ 30%: lesion area compared to the lesion area in an untreated barley [1] | lesion area compared to the lesion area in an untreated barley ([2]; 200 ppm foliar spray) | lesion area compared to the lesion area in an untreated barley ([2]; 500 ppm foliar spray) | lesion area compared to the lesion area in an untreated wheat [3, 9] | lesion area compared to the lesion area in an untreated cucumber ([5]; 200 ppm foliar spray) | lesion area compared to the lesion area in an untreated wheat [6]

COc1ccc(N=C(SC)SCc2c(C)cccc2-n2nnn(C)c2=O)cc1OC [4-11]
≤ 30%: lesion area compared to the lesion area in an untreated barley [1] | lesion area compared to the lesion area in an untreated barley ([2]; 200 ppm foliar spray) | lesion area compared to the lesion area in an untreated kidney bean ([7]; 200 ppm foliar spray) | lesion area compared to the lesion area in an untreated soybean [8]

C#CCON=C(C)C(C)=NN=C(CC)OCc1c(C)cccc1-n1nnn(C)c1=O [C-5]
≤ 30%: lesion area compared to the lesion area in an untreated barley [1] | lesion area compared to the lesion area in an untreated barley ([2]; 200 ppm foliar spray) | lesion area compared to the lesion area in an untreated barley ([2]; 500 ppm foliar spray) | lesion area compared to the lesion area in an untreated wheat [3, 9] | lesion area compared to the lesion area in an untreated wheat [3, 10] | lesion area compared to the lesion area in an untreated soybean [8] | lesion area compared to the lesion area in an untreated wheat ([4]; 200 ppm foliar spray) | lesion area compared to the lesion area in an untreated wheat ([4]; 500 ppm foliar spray) | lesion area compared to the lesion area in an untreated cucumber ([5]; 50 ppm foliar spray) | lesion area compared to the lesion area in an untreated wheat [6]

CCC(=NN=C(C)C(C)=NOCc1ccccc1C)OCc1c(C)cccc1-n1nnn(C)c1=O [C-7]
≤ 30%: lesion area compared to the lesion area in an untreated barley [1] | lesion area compared to the lesion area in an untreated barley ([2]; 200 ppm foliar spray) | lesion area compared to the lesion area in an untreated kidney bean ([7]; 200 ppm foliar spray) | lesion area compared to the lesion area in an untreated kidney bean ([7]; 500 ppm foliar spray) | lesion area compared to the lesion area in an untreated wheat [3, 9] | lesion area compared to the lesion area in an untreated wheat [3, 10] | lesion area compared to the lesion area in an untreated soybean [8] | lesion area compared to the lesion area in an untreated wheat ([4]; 200 ppm foliar spray) | lesion area compared to the lesion area in an untreated wheat [6]

CCC(=NN=C(C)C(C)=NOCc1ccccc1OC)OCc1c(C)cccc1-n1nnn(C)c1=O [C-9]
≤ 30%: lesion area compared to the lesion area in an untreated barley [1] | lesion area compared to the lesion area in an untreated barley ([2]; 200 ppm foliar spray) | lesion area compared to the lesion area in an untreated kidney bean ([7]; 200 ppm foliar spray) | lesion area compared to the lesion area in an untreated kidney bean ([7]; 500 ppm foliar spray) | lesion area compared to the lesion area in an untreated wheat [3, 9] | lesion area compared to the lesion area in an untreated wheat [3, 10] | lesion area compared to the lesion area in an untreated soybean [8] | lesion area compared to the lesion area in an untreated wheat ([4]; 200 ppm foliar spray) | lesion area compared to the lesion area in an untreated wheat [6]

CCC(=NN=C(C)C(C)=NOCc1cccc(OC)c1)OCc1c(C)cccc1-n1nnn(C)c1=O [C-10]
≤ 30%: lesion area compared to the lesion area in an untreated barley [1] | lesion area compared to the lesion area in an untreated barley ([2]; 200 ppm foliar spray) | lesion area compared to the lesion area in an untreated barley ([2]; 500 ppm foliar spray) | lesion area compared to the lesion area in an untreated kidney bean ([7]; 200 ppm foliar spray) | lesion area compared to the lesion area in an untreated kidney bean ([7]; 500 ppm foliar spray) | lesion area compared to the lesion area in an untreated wheat [3, 9] | lesion area compared to the lesion area in an untreated wheat [3, 10] | lesion area compared to the lesion area in an untreated soybean [8] | lesion area compared to the lesion area in an untreated wheat ([4]; 200 ppm foliar spray) | lesion area compared to the lesion area in an untreated wheat [6]

CCC(=NN=C(C)C(C)=NOCc1ccc(OC)cc1)OCc1c(C)cccc1-n1nnn(C)c1=O [C-12]
≤ 30%: lesion area compared to the lesion area in an untreated barley [1] | lesion area compared to the lesion area in an untreated barley ([2]; 500 ppm foliar spray) | lesion area compared to the lesion area in an untreated wheat [3, 9] | lesion area compared to the lesion area in an untreated wheat [3, 10] | lesion area compared to the lesion area in an untreated soybean [8] | lesion area compared to the lesion area in an untreated wheat ([4]; 200 ppm foliar spray) | lesion area compared to the lesion area in an untreated wheat ([4]; 500 ppm foliar spray) | lesion area compared to the lesion area in an untreated wheat [6]

CCC(=NN=C(C)c1ccc2scnc2c1)OCc1c(C)cccc1-n1nnn(C)c1=O [D-3]
≤ 30%: lesion area compared to the lesion area in an untreated barley ([2]; 500 ppm foliar spray) | lesion area compared to the lesion area in an untreated kidney bean ([7]; 200 ppm foliar spray) | lesion area compared to the lesion area in an untreated kidney bean ([7]; 500 ppm foliar spray) | lesion area compared to the lesion area in an untreated wheat [3, 10] | lesion area compared to the lesion area in an untreated soybean [8] | lesion area compared to the lesion area in an untreated wheat ([4]; 500 ppm foliar spray)

CCC(=NN=C(C)c1cnc2ccccc2n1)OCc1c(C)cccc1-n1nnn(C)c1=O [D-4]
≤ 30%: lesion area compared to the lesion area in an untreated barley [1] | lesion area compared to the lesion area in an untreated barley ([2]; 200 ppm foliar spray) | lesion area compared to the lesion area in an untreated barley ([2]; 500 ppm foliar spray) | lesion area compared to the lesion area in an untreated wheat [3, 10] | lesion area compared to the lesion area in an untreated soybean [8]

CCC(=NN=C(C)c1ccc2c(c1)OCO2)OCc1c(C)cccc1-n1nnn(C)c1=O [D-8]
≤ 30%: lesion area compared to the lesion area in an untreated barley [1] | lesion area compared to the lesion area in an untreated barley ([2]; 200 ppm foliar spray) | lesion area compared to the lesion area in an untreated barley ([2]; 500 ppm foliar spray) | lesion area compared to the lesion area in an untreated kidney bean ([7]; 500 ppm foliar spray) | lesion area compared to the lesion area in an untreated wheat [3, 9] | lesion area compared to the lesion area in an untreated wheat [3, 10] | lesion area compared to the lesion area in an untreated soybean [8] | lesion area compared to the lesion area in an untreated wheat ([4]; 200 ppm foliar spray) | lesion area compared to the lesion area in an untreated wheat ([4]; 500 ppm foliar spray) | lesion area compared to the lesion area in an untreated wheat [6]

CCC(=NN=C1CCOc2c(OC)cccc21)OCc1c(C)cccc1-n1nnn(C)c1=O [E-20]
≤ 30%: lesion area compared to the lesion area in an untreated barley [1] | lesion area compared to the lesion area in an untreated barley ([2]; 500 ppm foliar spray) | lesion area compared to the lesion area in an untreated kidney bean ([7]; 500 ppm foliar spray) | lesion area compared to the lesion area in an untreated wheat [3, 9] | lesion area compared to the lesion area in an untreated wheat [3, 10] | lesion area compared to the lesion area in an untreated soybean [8] | lesion area compared to the lesion area in an untreated wheat ([4]; 200 ppm foliar spray) | lesion area compared to the lesion area in an untreated wheat [6]
